# Percent effect of library compounds

Measurements from “University of Dundee, Small-Polar-MMV Screening Library” (2021), ChEMBL document CHEMBL3988442.

Results are given as percent effect.
The controls that fix the scale are not given in the record; negative values are as filed.
Compounds were drawn at random from those tested, without regard to their results.
Two or more numbers in one place are separate tests of the same structure; such repeats can differ widely.

Mtb cholesterol medium: 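Growth of Mycobacterium tuberculosis over 4 days (cholesterol / DPPC medium with tyloxapol); the read-out is not stated. Tested at 50 µM. Higher reads as more growth inhibition (inferred: compounds with an IC50 in retests scored well above the rest). Of about 69,000 compounds tested this way, about 370 (0.54%) reached 50% or more in at least one test.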
Mtb glucose medium: 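Growth of Mycobacterium tuberculosis over 3 days (7H9 medium with glucose and tyloxapol); the read-out is not stated. Concentration: 50 µM. Higher reads as more growth inhibition (inferred: compounds with an IC50 in retests scored well above the rest). Of about 69,000 compounds tested this way, about 760 (1.1%) reached 50% or more in at least one test.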

Compound	Mtb cholesterol medium	Mtb glucose medium
[H][C@@]12CN(Cc3ccc(C)o3)C[C@]1([H])N(Cc1ccccn1)C(=O)O2	-14.9%	-8.844%
COc1ccc(-c2noc(CCC(=O)N3CCOCC3(C)C)n2)cc1	7.329%	0.7055% and 1.184%
Cc1ccc(-n2cc(CN3CCOCC(CN(C)C)C3)cn2)cc1C (centres unmarked)	-46.04%	-5.23% and -29.94%
CNC(=O)[C@@H]1C[C@@H](NC(=O)c2cn(C)nc2C)CN1Cc1sccc1C	-2.594%	17.26%
O=C(CCCc1cn[nH]c1)N1C[C@H](CO)C[C@H](CN2CCCC2)C1	-2.346%	7.915%
COc1cc(C)ccc1OCC(=O)Nc1ccnc(OCCN(C)C)c1	5.319%	0.8306% and 21.54%
COCCn1ccnc1C1CCCN(C(=O)CSCC2CC2)C1 (centres unmarked)	-19.53%	-0.000840% and 1.509%
O=C(O)C(F)(F)F.[H][C@@]12CCN(CC(=O)N(C)C)C(=O)[C@@]1([H])CN(c1ncc(C)cn1)C2	-17.46%	-16.52% and -48.72%
COc1ccc(CCNC(=O)C(C)Nc2ccc(C)c(C)c2)cc1 (centres unmarked)	-6.44%	-13.3%
Cc1ccccc1N1CC2(CCCCN2CC2CC2)CC1=O.O=C(O)C(F)(F)F (centres unmarked)	4.76%	-4.898% and 12.93%
Cc1ccccc1CC1(C(=O)O)CCCN(c2ncnc3[nH]ccc23)C1 (centres unmarked)	-21.93%	-39.88%
CCc1nc(CN(C)CC(=O)N(C)C2CC2)cs1	-15.54%	-5.257%
O=C(O)C(F)(F)F.[H][C@@]12CCN(S(=O)(=O)C3CC3)[C@@]1([H])CCN2Cc1ccc(C)cc1	-14.65%	-4.788% and -32.75%
N#CCCN(Cc1ccco1)C(=O)CCCc1ccccc1	0.7005%	1.275% and 3.875%
[H][C@@]12CCN(C(=O)C3CC3)C[C@]1([H])OCCN(Cc1ccc(OC)cc1)C2=O	7.108%	1.264%
CC(=O)c1cc(CC(=O)NCc2c(F)cccc2F)cs1	19.55%	29.47%
O=C(O)c1csc(S(=O)(=O)N2CCN(Cc3ccc(Cl)cc3)CC2)c1	-23.19%	-33.35% and 11.68%
Cn1cc(NC(=O)c2cccc(C(F)(F)F)c2)c(=O)n(C)c1=O	-8.732%	21.05%
CNC(=O)Cn1nnc(-c2cc3ccccc3o2)n1	-10.33%	-18.16% and -5.416%
Cc1nc(C)n(CC2CCCN2Cc2cn(-c3ccccc3)nn2)n1 (centres unmarked)	-10.27%	-11.54%
Cc1cccc(-c2ccc(C(=O)NCCN(C)C3CC3)c(=O)[nH]2)c1	6.955%	26.86%
CCOc1ccc(C2CC(=O)Nc3c2c(=O)nc2sccn32)cc1 (centres unmarked)	3.281%	2.914%
CCn1c(C)nnc1CN(C)C1CCN(CC2CCC2)C1 (centres unmarked)	-27.85%	-13.78%
CN1CCN(Cc2c[nH]cn2)CC12CCC(=O)N(CC1CC1)CC2 (centres unmarked)	-25.57% and -10.4%	-18.32%
CCc1nnc(CN(C)c2nc(C3CCCC3)nc3c2cnn3C)o1	-12.98%	2.339% and 7.4%
Cn1ccnc1-c1cn(CCc2nnc(N)s2)nn1	-14.03%	-6.674%
NC(=O)c1cccc(OCC(=O)N2CCCC(n3ccnc3)C2)c1 (centres unmarked)	9.685%	4.311% and -3.328%
O=C(O)C(F)(F)F.[H][C@@]12CCN(C3CCOC3)[C@@]1([H])CC(=O)N2Cc1csc(C)n1 (some centres unmarked)	-1.281%	6.277%
CC(CC#N)N(C)Cc1ccc(F)cc1F (centres unmarked)	3.781% and 0.7995%	0.8064% and 0.9037%
[H][C@@]12COC[C@]1(COCc1cccnc1)CN(C(=O)CCOC)C2	-18.7%	6.674%
Fc1ccc2c(c1)nc1n2[C@@H](CNCc2nccs2)COC1	13.73%	-7.149% and 1.299%
O=C(O)C(F)(F)F.[H][C@@]12CCCO[C@]1([H])[C@H](NC(=O)c1cnn(C)c1)CN2Cc1ccc(F)cc1	9.014%	44.37% and 15.29%
O=C(O)c1ccn(-c2ccccc2NC(=O)c2ccccc2Cl)n1	-6.559%	26.9%
CCc1ccccc1Nc1noc2c1CN(C(=O)CNC(C)=O)CC2	-16.82%	-15.25%
COC(=O)c1ccc(CN2CCN(Cc3nc(C)no3)CC2)s1	6.422% and -0.3145%	24.11%
CC(C)CCN1CCC2(CCCN(c3nncs3)C2)C1.O=C(O)C(F)(F)F (centres unmarked)	-3.347% and -4.923%	-4.284% and -3.069%
CCC[C@H]1CN(S(=O)(=O)c2ccccc2)C[C@@H]1N	2.189%	-3.034%
COCCNc1nc(NCCc2ccccc2)nc2nccnc12	-8.984%	12.09% and 6.373%
Cc1cc(C2CCCN(CC(=O)N3CCc4ccccc43)C2)n[nH]1 (centres unmarked)	-7.022%	17.49%
COCCNC(=O)N1CCN(C(=O)c2nsc3ccc(C)cc23)CC1	-5.44%	2.661%
O=C(NCc1cccnc1)N1CCSCC1CCO (centres unmarked)	-27.48%	-1.102% and -29.19%
CC(=O)N[C@@H]1CN(Cc2ccc(F)cc2F)C[C@H]1c1ccc(C)o1	-20.88% and -11.87%	-26.77%
Cn1cc(CN2CCCN(C(=O)c3sccc3C#N)CC2)cn1	-8.898%	-11.86%
[H][C@@]12CCCN1CCCN(Cc1cnc(NCc3ccccc3)nc1)C2	-10.43%	35.36%
Cn1c(CNc2c(F)cccc2-n2cccn2)cc(=O)n(C)c1=O	12.86%	-2.091% and 25.77%
Cc1noc(C)c1CN1CCOC2(CCCN(c3nccs3)C2)C1 (centres unmarked)	1.803%	-28.68%
CC(C)COC1CCN(S(=O)(=O)Cc2cccc(F)c2)CC1	13.34%	-15.72%
COc1cc(C)nc(N2CCN(C(=O)c3ccc[nH]3)CC2)n1	6.048%	44.1%
Cc1ccc2c(c1C)OCC2NCc1cccc(C#N)c1 (centres unmarked)	-1.099%	5.588%
CC(C)CCCC(C)NC(=O)c1ccc(OCC(N)=O)cc1 (centres unmarked)	43.87%	23.53% and 24.54%
COc1cccc(-c2cc(NCCO)nc3[nH]ccc23)n1	12.6%	-19.96%
CCc1nc(CC(=O)N2CCn3c(CC)nnc3C2)cs1	-6.296%	-6.297%
CSc1ccc(-c2nc(CN3CCC(NC(C)=O)CC3)c(C)o2)cc1	1.416%	8.504%
O=C1CCSCC(C(=O)N2CCC(O)CC2)N1 (centres unmarked)	0.709%	0.6603%
CCOCCCC(=O)Nc1cc(C(N)=O)ccc1N1CCCCC1	10.15%	-16.83%
[H][C@@]12CN(C(C)C)C[C@]1([H])OCC(=O)N2Cc1ccccc1	12.25%	10.29% and 2.634%
CNc1cc(C2CN(Cc3coc(C)n3)CCO2)nc(C)n1 (centres unmarked)	4.815%	16.03%
CCN(CC)C(=O)CSc1sc2c(O)cc(=O)[nH]c2c1C(N)=O	-12.42%	-7.928%
Cc1ncc(CN(C)C(=O)Nc2ccc(CN3CCOC3=O)cc2)s1	0.2376%	7.806%
Cc1cc(CN(C)CC2CCCCC2)no1	0.5218%	11.6%
Cc1c(C(=O)NCCC2CN(C)CCO2)n(C)c2c(C)cccc12 (centres unmarked)	9.108%	-1.319%

Some entries from above, unchanged:

* O=C(O)c1csc(S(=O)(=O)N2CCN(Cc3ccc(Cl)cc3)CC2)c1 | Mtb cholesterol medium: -23.19%; Mtb glucose medium: -33.35% and 11.68%
* CSc1ccc(-c2nc(CN3CCC(NC(C)=O)CC3)c(C)o2)cc1 | Mtb cholesterol medium: 1.416%; Mtb glucose medium: 8.504%
* COC(=O)c1ccc(CN2CCN(Cc3nc(C)no3)CC2)s1 | Mtb cholesterol medium: 6.422% and -0.3145%; Mtb glucose medium: 24.11%
* Cc1cccc(-c2ccc(C(=O)NCCN(C)C3CC3)c(=O)[nH]2)c1 | Mtb cholesterol medium: 6.955%; Mtb glucose medium: 26.86%
* O=C(O)C(F)(F)F.[H][C@@]12CCN(CC(=O)N(C)C)C(=O)[C@@]1([H])CN(c1ncc(C)cn1)C2 | Mtb cholesterol medium: -17.46%; Mtb glucose medium: -16.52% and -48.72%
* CCOCCCC(=O)Nc1cc(C(N)=O)ccc1N1CCCCC1 | Mtb cholesterol medium: 10.15%; Mtb glucose medium: -16.83%